According to the supplement of paper PMC10735217:
Counter-ions that a name gives are not always drawn. This is one part of the list. Single values are uncertain here, since repeats match poorly.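 Human kidney-derived cells stably carry a construct in which eight TEAD-binding elements drive luciferase, measured by luminescence in a drug-repurposing library screen. A hit is any compound whose signal exceeds the plate mean by more than five robust Z scores.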

Test system: HEK293A TEAD-LUC reporter
Experiment: TEAD-luciferase reporter activity (YAP activation), robust Z score vs plate; higher = stronger YAP/TEAD activation
Conditions: 24 h

| Structure (SMILES) | TEAD-luciferase reporter activity (compound concentration: 200 nM) | TEAD-luciferase reporter activity (compound concentration: 2 uM) | TEAD-luciferase reporter activity (compound concentration: 10 uM) |
| --- | --- | --- | --- |
| O=C(O)CC/C=C\CC[C@@H]1[C@@H](N2CCCCC2)[C@@H](O)C[C@@H]1OCc1ccc(-c2ccccc2)cc1 [Vapiprost hydrochloride] | inactive: -1.03 | inactive: -1.26 | inactive: 1.36 |
| Cn1cc(C2=C(c3c4n(c5ccccc35)CCC(CN)C4)C(=O)NC2=O)c2ccccc21 (stereo unspecified) | inactive: 1.97 | inactive: -0.944 | inactive: -2.17 |
| CCOC(=O)c1ccc(NC(=O)C2=C(C)OCCS2)cc1 | inactive: -1.62 | inactive: 0.382 | inactive: 0.433 |
| CC1=C(C(=O)O)N2C(=O)[C@@H](NC(=O)C(N)c3ccc4c(c3)OCO4)[C@H]2SC1 (stereo partly specified) | inactive: 0.199 | inactive: -0.624 | inactive: 0.99 |
| CCCc1ccc(OCC(C)O)c2c(=O)cc(C(=O)O)oc12 (stereo unspecified) | inactive: -1.87 | inactive: -0.844 | inactive: 0.189 |
| Cc1ccc(C(=O)N(CCCN)C(=C2Nc3cc(Cl)ccc3C(=O)N2Cc2ccccc2)C(C)C)cc1 [ispinesib mesylate] | inactive: -0.242 | inactive: -2.86 | inactive: 3.71 |
| C[C@]1(c2nc3c(C(N)=O)cccc3[nH]2)CCCN1 | – | inactive: -0.549 | – |
| C[C@]1(c2nc3c(C(N)=O)cccc3[nH]2)CCCN1 [ABT-888 (Veliparib)] | inactive: -0.733 | – | inactive: -0.385 |
| CN1c2c(oc(=O)n(-c3ccccn3)c2=O)-c2ccccc2S1(=O)=O [droxicam] | inactive: 2.27 | inactive: -1.25 | inactive: 3.22 |
| Nc1nnc(-c2cccc(Cl)c2Cl)c(N)n1 [lamotrigine] | inactive: 1.32 | – | inactive: -0.854 |
| Nc1nnc(-c2cccc(Cl)c2Cl)c(N)n1 [lamotrigine orally disintegrating tablet] | – | inactive: -1.6 | – |
| COC(=O)CCc1ccc(OCC(O)CNC(C)C)cc1 (stereo unspecified) | inactive: 0.315 | – | inactive: -0.487 |
| COC(=O)CCc1ccc(OCC(O)CNC(C)C)cc1 (stereo unspecified) [esmolol hydrochloride] | – | inactive: -0.369 | – |
| COc1cc(OC)cc(C(=O)N2CCN(CCc3ccc(Cl)cc3)CC2)c1 | inactive: 0.804 | inactive: -0.0338 | inactive: 0.361 |
| O=C1CCC(N2C(=O)C3CCCC3C2=O)C(=O)N1 (stereo unspecified) | inactive: 1.4 | inactive: -0.241 | inactive: -1.26 |
| O=C1c2ccccc2C(=O)c2c1cn1c2Cc2ccccc2C1 [Mitoquidone] | inactive: -0.839 | inactive: -0.997 | inactive: 1.4 |
| CCN(CC)CCOc1ccc(/C(=C(/Cl)c2ccccc2)c2ccccc2)cc1 [enclomiphene citrate] | inactive: -1.17 | inactive: -1.12 | inactive: 0.957 |
| O=C1CN(S(=O)(=O)c2oc3ccccc3c2Br)C(=O)N1 | inactive: -0.807 | inactive: 0.982 | inactive: 0.976 |
| Cc1ccc(-c2cc(C(F)(F)F)nn2-c2ccc(S(N)(=O)=O)cc2)cc1 | inactive: -1.12 | – | inactive: 2.59 |

| Structure (SMILES) | TEAD-luciferase reporter activity (compound concentration: 200 nM) | TEAD-luciferase reporter activity (compound concentration: 2 uM) | TEAD-luciferase reporter activity (compound concentration: 10 uM) |
| --- | --- | --- | --- |
| Cc1ccc(-c2cc(C(F)(F)F)nn2-c2ccc(S(N)(=O)=O)cc2)cc1 [celecoxib] | – | inactive: -1.14 | – |
| Cc1ccc(-c2cc(C(F)(F)F)nn2-c2ccc(S(N)(=O)=O)cc2)cc1 [Celecoxib] | – | inactive: 0.674 | – |
| CC(C)NCC1CCc2cc(CO)c([N+](=O)[O-])cc2N1 (stereo unspecified) [Oxamniquine] | inactive: -0.365 | inactive: 2.28 | inactive: 0.829 |
| O=C(O)c1cnc(Nc2cccc(Cl)c2)nc1C(F)(F)F | inactive: 0.143 | inactive: 0.552 | inactive: -1.07 |
| O=C(O)COc1c(F)cc(SCCNS(=O)(=O)c2ccc(Cl)cc2)cc1F | inactive: -0.466 | inactive: 0.63 | inactive: 0.555 |
| CC(C)COC(=O)OCN1C(=O)CN(CCN2CC(=O)N(COC(=O)OCC(C)C)C(=O)C2)CC1=O [Sobuzoxane] | inactive: 0.499 | inactive: 1.68 | inactive: 1 |
| CCCCCCCCOc1ccc(NC(=O)C(C)(N)CO)cc1 (stereo unspecified) | inactive: -0.177 | inactive: -0.756 | inactive: 1.71 |
| CCCCCCSc1nsnc1C1=CCCN(C)C1 [Tazomeline] | inactive: -0.604 | inactive: 1.53 | inactive: 4.12 |
| c1ccc2c(-c3nc4cnccc4[nH]3)c[nH]c2c1 | inactive: 3.56 | – | inactive: 1.32 |
| Fc1ccc2c(c1)[nH]c1cc(Cc3cccnc3)ccc12 | inactive: -2.16 | inactive: -1.46 | inactive: 0.196 |
| Cc1nc(N)sc1-c1ccnc(Nc2ccc(N3CCOCC3)cc2)n1 | inactive: -0.107 | inactive: 0.103 | inactive: 0.992 |
| Nc1ccc(C(=O)OCc2cccnc2)cn1 | inactive: 3.98 | inactive: -0.345 | inactive: 0.738 |
| CC1(C)CC(C)(C)c2cc(C#Cc3ccc(C(=O)O)cc3)ccc2O1 | inactive: -1.15 | inactive: 2.24 | inactive: 1.27 |
| CCC(CC)C(NC(C)=O)C1C[C@@H](C(=O)O)C[C@H]1NC(=N)N (stereo partly specified) | inactive: 0.289 | inactive: -0.286 | inactive: -0.805 |
| Cc1nc(Nc2n[nH]c3c2CN(C(=O)N[C@H](CNC(C)C)c2ccccc2)C3(C)C)c2sccc2n1 | inactive: -1.89 | inactive: -1.94 | inactive: -0.838 |
| CCCCC(=O)O[C@]1(C(=O)CO)CC[C@H]2[C@@H]3CCC4=CC(=O)CC[C@]4(C)[C@H]3[C@@H](O)C[C@@]21C [Hydrocortisone valerate] | inactive: -0.765 | inactive: 2.12 | inactive: 3.46 |
| CC(C)C[C@H](NC(=O)[C@@H](NC(=O)CNC(=O)CN)C(C)C)C(=O)N[C@H](C(=O)N[C@@H](CCC(N)=O)C(=O)N1CCC[C@H]1C(=O)NCC(=O)O)C(C)C [Larazotide acetate] | inactive: -2.33 | inactive: -0.48 | inactive: -0.359 |
| COc1ccc(/C=C(\C#N)c2cccnc2)cc1OC | inactive: -1.78 | inactive: 0.388 | inactive: -1.46 |

Full records as entered above. Order of values: TEAD-luciferase reporter activity (compound concentration: 200 nM) | TEAD-luciferase reporter activity (compound concentration: 2 uM) | TEAD-luciferase reporter activity (compound concentration: 10 uM)
Nc1ccc(C(=O)OCc2cccnc2)cn1 is entered as inactive: 3.98 | inactive: -0.345 | inactive: 0.738
CCCCCCSc1nsnc1C1=CCCN(C)C1 [Tazomeline] is entered as inactive: -0.604 | inactive: 1.53 | inactive: 4.12
